From the supplement of paper PMC11732987, “Enantioselective OTUD7B fragment discovery through chemoproteomics screening and high-throughput optimisation” (Communications Chemistry, 2025)
Some of the results follow. The data scatter; read single values as rough.

The chains behind the UniProt entries cited, without tags or fusion partners. Where a name states a change or a piece, a line headed by the entry shows the natural chain unless it says otherwise. Residues count along the entry.
UniProt Q8NCM8: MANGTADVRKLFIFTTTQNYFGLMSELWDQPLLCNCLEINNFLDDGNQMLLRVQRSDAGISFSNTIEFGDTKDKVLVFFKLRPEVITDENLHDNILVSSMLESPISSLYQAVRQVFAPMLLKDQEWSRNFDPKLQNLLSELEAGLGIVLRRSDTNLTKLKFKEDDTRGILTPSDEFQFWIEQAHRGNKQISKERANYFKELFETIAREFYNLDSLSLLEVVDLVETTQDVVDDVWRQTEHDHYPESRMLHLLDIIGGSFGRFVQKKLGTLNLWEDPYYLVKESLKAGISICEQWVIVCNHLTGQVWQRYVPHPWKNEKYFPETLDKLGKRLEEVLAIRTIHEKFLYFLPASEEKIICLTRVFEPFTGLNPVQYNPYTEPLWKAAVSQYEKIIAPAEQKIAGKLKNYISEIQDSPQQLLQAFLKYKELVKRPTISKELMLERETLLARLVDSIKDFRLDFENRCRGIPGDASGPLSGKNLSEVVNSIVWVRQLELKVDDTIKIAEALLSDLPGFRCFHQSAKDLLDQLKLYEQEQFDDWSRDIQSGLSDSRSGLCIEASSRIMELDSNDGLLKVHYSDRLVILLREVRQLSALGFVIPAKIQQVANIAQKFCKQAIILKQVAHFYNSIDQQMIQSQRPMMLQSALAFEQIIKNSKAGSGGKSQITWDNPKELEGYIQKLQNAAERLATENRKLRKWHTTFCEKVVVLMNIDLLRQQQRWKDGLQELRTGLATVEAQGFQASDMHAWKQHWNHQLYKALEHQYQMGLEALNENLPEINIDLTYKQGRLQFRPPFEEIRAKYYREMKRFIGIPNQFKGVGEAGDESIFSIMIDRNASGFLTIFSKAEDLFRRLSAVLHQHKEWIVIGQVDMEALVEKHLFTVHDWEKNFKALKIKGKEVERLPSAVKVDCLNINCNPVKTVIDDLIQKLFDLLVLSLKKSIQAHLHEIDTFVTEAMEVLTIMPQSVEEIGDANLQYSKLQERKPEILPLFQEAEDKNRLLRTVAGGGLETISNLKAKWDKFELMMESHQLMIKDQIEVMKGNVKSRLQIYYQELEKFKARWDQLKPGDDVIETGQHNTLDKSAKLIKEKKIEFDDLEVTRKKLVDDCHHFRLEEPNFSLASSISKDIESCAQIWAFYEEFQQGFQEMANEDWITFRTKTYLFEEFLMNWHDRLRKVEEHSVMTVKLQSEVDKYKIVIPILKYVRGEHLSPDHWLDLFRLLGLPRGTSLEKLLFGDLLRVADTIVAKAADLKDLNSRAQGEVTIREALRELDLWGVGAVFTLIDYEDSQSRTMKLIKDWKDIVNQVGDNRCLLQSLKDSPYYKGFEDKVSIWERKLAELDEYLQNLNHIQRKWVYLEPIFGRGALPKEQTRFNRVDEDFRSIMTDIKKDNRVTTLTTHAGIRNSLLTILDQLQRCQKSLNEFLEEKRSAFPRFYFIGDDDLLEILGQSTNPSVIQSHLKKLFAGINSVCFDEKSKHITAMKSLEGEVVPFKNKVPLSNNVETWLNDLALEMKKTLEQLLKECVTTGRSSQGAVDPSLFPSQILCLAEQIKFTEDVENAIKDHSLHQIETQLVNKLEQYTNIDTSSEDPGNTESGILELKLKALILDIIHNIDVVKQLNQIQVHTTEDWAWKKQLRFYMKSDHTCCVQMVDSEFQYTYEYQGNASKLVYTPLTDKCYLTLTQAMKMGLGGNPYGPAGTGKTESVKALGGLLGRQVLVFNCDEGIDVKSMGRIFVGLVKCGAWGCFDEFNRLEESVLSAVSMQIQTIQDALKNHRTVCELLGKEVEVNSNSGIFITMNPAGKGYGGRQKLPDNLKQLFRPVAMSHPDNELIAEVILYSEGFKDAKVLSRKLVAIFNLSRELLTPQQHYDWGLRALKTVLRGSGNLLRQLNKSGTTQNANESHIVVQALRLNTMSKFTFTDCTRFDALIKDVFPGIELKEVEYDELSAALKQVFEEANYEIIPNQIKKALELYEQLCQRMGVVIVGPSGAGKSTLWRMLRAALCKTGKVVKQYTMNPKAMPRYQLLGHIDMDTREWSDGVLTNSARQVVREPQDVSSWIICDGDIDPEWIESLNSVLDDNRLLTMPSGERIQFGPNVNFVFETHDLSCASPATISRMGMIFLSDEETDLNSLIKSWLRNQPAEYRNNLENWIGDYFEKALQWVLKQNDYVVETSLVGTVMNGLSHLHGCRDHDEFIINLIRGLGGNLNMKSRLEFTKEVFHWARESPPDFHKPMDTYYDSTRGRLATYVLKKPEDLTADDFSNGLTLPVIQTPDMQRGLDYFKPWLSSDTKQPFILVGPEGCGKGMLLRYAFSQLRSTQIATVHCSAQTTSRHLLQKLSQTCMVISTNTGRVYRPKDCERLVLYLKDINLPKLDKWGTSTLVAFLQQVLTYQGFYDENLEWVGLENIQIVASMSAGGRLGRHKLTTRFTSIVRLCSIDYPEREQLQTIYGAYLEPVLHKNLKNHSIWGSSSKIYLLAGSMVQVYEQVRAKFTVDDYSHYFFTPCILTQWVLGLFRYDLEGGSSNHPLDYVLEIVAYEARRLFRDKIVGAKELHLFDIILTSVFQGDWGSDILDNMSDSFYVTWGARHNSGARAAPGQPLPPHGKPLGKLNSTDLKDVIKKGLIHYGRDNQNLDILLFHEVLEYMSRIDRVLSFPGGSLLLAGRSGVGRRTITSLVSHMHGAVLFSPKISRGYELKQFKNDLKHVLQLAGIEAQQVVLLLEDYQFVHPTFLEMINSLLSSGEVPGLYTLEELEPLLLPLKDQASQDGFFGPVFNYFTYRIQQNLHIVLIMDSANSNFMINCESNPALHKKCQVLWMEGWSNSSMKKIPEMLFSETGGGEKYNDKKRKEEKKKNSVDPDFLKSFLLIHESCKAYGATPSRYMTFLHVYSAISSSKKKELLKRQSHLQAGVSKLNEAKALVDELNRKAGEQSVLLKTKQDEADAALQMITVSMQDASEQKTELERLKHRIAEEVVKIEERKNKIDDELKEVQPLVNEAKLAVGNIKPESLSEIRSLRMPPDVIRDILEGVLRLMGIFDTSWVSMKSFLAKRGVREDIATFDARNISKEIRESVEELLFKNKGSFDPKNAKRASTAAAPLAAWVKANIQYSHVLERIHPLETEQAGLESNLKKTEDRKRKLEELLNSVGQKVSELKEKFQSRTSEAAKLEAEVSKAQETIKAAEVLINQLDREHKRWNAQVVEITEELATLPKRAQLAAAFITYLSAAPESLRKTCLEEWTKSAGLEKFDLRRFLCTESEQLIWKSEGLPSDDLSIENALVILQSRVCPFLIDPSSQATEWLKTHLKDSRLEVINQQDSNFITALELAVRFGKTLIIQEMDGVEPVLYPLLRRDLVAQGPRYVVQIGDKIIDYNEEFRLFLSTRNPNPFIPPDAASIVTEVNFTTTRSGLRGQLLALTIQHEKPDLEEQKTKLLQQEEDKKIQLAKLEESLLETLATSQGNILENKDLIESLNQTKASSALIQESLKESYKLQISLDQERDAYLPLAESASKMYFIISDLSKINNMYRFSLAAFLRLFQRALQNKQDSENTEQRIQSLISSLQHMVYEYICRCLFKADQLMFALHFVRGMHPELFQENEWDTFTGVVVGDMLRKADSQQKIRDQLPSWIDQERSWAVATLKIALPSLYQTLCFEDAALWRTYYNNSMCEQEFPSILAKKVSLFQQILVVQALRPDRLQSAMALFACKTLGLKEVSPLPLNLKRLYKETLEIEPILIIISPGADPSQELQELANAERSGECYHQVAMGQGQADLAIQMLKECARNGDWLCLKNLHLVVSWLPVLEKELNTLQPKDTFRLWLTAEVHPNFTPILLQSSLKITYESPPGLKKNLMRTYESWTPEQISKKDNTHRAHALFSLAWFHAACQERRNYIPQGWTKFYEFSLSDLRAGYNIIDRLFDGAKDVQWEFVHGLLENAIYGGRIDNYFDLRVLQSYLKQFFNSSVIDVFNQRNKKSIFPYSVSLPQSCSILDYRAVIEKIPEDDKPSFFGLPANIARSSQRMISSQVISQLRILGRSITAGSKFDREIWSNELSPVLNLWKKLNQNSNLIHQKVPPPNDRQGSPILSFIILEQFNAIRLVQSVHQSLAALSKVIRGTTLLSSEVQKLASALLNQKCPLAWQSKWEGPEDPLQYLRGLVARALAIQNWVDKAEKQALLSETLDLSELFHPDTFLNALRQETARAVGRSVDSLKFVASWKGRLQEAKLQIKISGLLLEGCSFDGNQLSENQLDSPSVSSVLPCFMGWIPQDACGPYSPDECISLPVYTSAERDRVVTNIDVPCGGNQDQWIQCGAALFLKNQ
UniProt Q7Z2Z2, 453-476: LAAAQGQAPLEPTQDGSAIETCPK
UniProt O15371, whole entry, looked up: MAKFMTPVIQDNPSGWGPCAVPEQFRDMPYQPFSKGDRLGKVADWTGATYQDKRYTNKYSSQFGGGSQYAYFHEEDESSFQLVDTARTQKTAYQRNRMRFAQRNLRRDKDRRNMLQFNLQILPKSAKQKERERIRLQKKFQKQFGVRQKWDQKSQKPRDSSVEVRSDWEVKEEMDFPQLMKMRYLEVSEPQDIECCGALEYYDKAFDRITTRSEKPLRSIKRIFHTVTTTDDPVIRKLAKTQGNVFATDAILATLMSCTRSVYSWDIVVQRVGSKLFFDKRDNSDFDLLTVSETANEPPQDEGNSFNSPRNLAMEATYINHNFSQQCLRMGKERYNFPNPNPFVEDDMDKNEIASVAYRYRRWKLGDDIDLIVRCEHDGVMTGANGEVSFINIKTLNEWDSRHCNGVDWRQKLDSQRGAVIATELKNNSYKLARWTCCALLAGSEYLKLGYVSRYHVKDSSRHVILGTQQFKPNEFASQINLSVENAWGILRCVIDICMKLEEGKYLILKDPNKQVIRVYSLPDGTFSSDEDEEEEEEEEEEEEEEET
UniProt Q9NZJ0: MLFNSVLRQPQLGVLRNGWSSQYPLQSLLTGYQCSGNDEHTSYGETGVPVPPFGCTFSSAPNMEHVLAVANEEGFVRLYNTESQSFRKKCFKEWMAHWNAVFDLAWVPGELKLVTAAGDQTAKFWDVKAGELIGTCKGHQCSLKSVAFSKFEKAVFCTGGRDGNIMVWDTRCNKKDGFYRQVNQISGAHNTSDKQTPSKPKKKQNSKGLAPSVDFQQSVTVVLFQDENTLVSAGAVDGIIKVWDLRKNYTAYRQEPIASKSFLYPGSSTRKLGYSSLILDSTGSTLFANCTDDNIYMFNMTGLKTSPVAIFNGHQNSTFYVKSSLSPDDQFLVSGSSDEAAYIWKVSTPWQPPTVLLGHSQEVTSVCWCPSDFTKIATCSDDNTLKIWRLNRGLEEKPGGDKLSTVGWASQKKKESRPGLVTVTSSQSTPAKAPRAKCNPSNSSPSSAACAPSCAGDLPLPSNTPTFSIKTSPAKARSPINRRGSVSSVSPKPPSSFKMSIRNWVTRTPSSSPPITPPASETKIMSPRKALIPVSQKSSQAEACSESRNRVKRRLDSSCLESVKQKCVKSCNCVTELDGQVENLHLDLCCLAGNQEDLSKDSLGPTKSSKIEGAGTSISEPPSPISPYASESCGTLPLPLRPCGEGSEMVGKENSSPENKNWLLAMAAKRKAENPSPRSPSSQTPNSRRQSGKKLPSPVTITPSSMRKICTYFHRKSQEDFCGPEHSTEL
UniProt P30084: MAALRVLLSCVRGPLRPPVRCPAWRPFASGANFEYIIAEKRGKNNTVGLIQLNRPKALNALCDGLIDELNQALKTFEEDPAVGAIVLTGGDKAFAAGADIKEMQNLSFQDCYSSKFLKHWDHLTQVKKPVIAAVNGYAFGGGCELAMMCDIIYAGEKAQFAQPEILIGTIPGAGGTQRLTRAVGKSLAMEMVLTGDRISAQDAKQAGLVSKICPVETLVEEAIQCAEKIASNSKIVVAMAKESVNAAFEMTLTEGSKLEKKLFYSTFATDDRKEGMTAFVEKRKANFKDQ
UniProt P60981: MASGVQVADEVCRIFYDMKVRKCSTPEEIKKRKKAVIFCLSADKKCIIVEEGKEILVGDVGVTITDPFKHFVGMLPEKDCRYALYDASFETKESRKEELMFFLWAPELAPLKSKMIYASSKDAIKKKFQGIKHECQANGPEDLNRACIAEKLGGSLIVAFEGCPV
UniProt Q9GZV4, 2-26: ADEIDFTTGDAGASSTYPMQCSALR
UniProt Q96F86: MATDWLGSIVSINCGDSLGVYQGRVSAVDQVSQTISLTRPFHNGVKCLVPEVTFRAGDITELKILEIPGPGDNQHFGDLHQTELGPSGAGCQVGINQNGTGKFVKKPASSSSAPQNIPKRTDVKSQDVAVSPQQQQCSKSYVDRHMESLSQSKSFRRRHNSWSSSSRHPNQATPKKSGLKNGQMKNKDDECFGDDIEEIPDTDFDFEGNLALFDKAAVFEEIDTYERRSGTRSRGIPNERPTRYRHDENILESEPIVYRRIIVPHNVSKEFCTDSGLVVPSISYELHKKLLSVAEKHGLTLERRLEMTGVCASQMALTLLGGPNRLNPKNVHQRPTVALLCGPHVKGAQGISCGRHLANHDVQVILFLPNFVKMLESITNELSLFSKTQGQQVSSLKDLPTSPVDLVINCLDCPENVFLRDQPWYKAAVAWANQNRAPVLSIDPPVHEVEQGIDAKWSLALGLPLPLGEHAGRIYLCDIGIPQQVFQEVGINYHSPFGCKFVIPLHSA

What was measured:
[1] = compound: ClCC(=O)N[C@@H]1CCCc2ccccc12; assay: log2 mean competition ratio of IA-DTB cysteine labelling (DMSO/compound) (log2 ratio); higher = stronger cysteine engagement by compound; details: treatment time: 4 h, cell line lysate: HEK293T
Method: (§1)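 IA-DTB competitive cysteine chemoproteomics in HEK293T RIPA lysate. Lysates were treated with compound 29 or 30 at 50 or 200 µM for 4 h, then IA-DTB (500 µM, 1 h), trypsin-digested, NeutrAvidin-enriched and analysed by diaPASEF. Competition ratio = intensity DMSO / intensity compound (n=4 treated, n=64 DMSO); binding: mean log2 CR ≥ 1 and p ≤ 0.05 plus QC filters. Target is the cysteine site.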

[2] = compound: ClCC(=O)N[C@H]1CCCc2ccccc12; assay: as above; details: treatment time: 4 h, cell line lysate: HEK293T
Method: as §1

Target	log2 mean competition ratio ([1]; 50 µM)	log2 mean competition ratio ([1]; 200 µM)	log2 mean competition ratio ([2]; 50 µM)	log2 mean competition ratio ([2]; 200 µM)
EIF3G C169	0.0889	0.208		
DST C5056 (UniProt Q03001)	0.403	-0.0595		
EIF2AK1 C466 (UniProt Q9BQI3)	-0.17	0.0738		
DYNC2H1 C1465 (UniProt Q8NCM8)	-0.208	-0.295	-0.278	-0.184
DST C400 (UniProt Q03001)	-0.505	0.0336		
DSP C768 (UniProt P15924)	-0.362	-0.482		
EIF3C C752 (UniProt Q99613)	0.109	-0.149		
EGFL7 C56 (UniProt Q9UHF1)	0.428	0.657		
EFL1 C474 (UniProt Q7Z2Z2)	-0.375	0.0175		
EIF3D C404 (UniProt O15371)	-0.201	0.09		
EIF2B5 C196	-0.257	-0.0518		
DSP C1957 (UniProt P15924)	-0.0176	-0.0194	0.182	0.0132
DYNC2H1 C700 (UniProt Q8NCM8)	0.052	0.171		-0.123
DTL C559 (UniProt Q9NZJ0)	0.0949	0.616		
DYNC1LI2 C234 (UniProt O43237)	0.056	0.0201	-0.228	-0.0161
ECI2 C368 (UniProt O75521)	-0.089	0.339	-0.827	0.159
EDRF1 C1019 (UniProt Q3B7T1)	0.00586	0.353		
EIF4A1 C66	-0.143	-0.491		
EHHADH C51 (UniProt Q08426)	-0.218	-0.343	0.339	-0.263
EIF3C C443 (UniProt Q99613)	0.448	0.0888	-0.0496	0.0551

Target	log2 mean competition ratio ([1]; 50 µM)	log2 mean competition ratio ([1]; 200 µM)	log2 mean competition ratio ([2]; 50 µM)	log2 mean competition ratio ([2]; 200 µM)
ECHS1 C111 (UniProt P30084)	0.412	0.248	0.719	-0.156
EIF2AK1 C140 (UniProt Q9BQI3)	-0.212	0.364	-0.181	0.143
DYNC1H1 C3693 (UniProt Q14204)	-0.128	-0.277		
DSTN C12 (UniProt P60981)	-0.385	0.201		
EEF2 C290 (UniProt P13639)	0.497	-0.205		
ECPAS C1638 (UniProt Q5VYK3)	0.0368	-0.199		
EIF5A2 C22 (UniProt Q9GZV4)	-0.0643	-0.00382		-0.463
EIF3M C175 (UniProt Q7L2H7)	-0.0427	-0.316	-0.0527	-0.166
DRG2 C270 (UniProt P55039)	0.0369	0.0127	-0.0282	-0.181
DYNC1LI1 C247 (UniProt Q9Y6G9)	-0.0834	0.0277	-0.317	-0.232
EDC3 C47 (UniProt Q96F86)	-0.0259	-0.2	-0.249	-0.0874
DSCC1 C75 (UniProt Q9BVC3)	-0.23	0.109		
DTL C157 (UniProt Q9NZJ0)	-0.0757	-0.211		
DYNC2H1 C1970 (UniProt Q8NCM8)	0.295	-0.122		
DZIP3 C328 (UniProt Q86Y13)	0.0129	-0.0246	-0.658	-0.154
DUT C222	0.00396	-0.112		
EBF2 C254	-0.0345	-0.0206		
DYRK1A C312 (UniProt Q13627)	-0.00488	0.337		
DTNBP1 C302 (UniProt Q96EV8)	0.118	0.147	0.0908	0.162
EIF2B5 C335	0.115	-0.0747	0.526	-0.00378

Target	log2 mean competition ratio ([1]; 50 µM)	log2 mean competition ratio ([1]; 200 µM)	log2 mean competition ratio ([2]; 50 µM)	log2 mean competition ratio ([2]; 200 µM)
EIF5A C73	-0.358	0.264	-0.616	-0.02
EEF2 C567 (UniProt P13639)	-0.00022	-0.372	-0.449	-0.418
DST C5610 (UniProt Q03001)	-0.0624	-0.0512	-0.506	-0.162
DTL C544 (UniProt Q9NZJ0)	0.173	0.22	-0.221	0.0524
DTL C379 (UniProt Q9NZJ0)	-0.0986	0.113	-0.166	0.167
DSP C899 (UniProt P15924)	0.0302	-0.251	0.351	-0.119
DSTN C46 (UniProt P60981)	0.232	0.00465	0.444	0.137
DSTN C39 (UniProt P60981)	0.272	0.0594	0.25	-0.123
E2F5 C121	0.0122	0.302	0.0383	0.198
ELAVL1 C13 (UniProt Q15717)	-0.207	0.139	-0.594	0.149
DSC2 C797 (UniProt Q02487)	-0.0081	0.219	-0.345	0.418
DSP C1805 (UniProt P15924)	0.147	-0.0105	0.0252	-0.0313
EGFR C775 (UniProt P00533)	-0.0391	0.0372	0.15	0.317
E4F1 C361	-0.384	0.0879	-0.352	-0.165
DZIP3 C318 (UniProt Q86Y13)	-0.00765	0.127	-0.0503	0.0875
ELAC2 C136 (UniProt Q9BQ52)	-0.0403	-0.114	-0.0835	0.119
EIF4E C170 (UniProt P06730)	-0.28	-0.255	0.107	0.0201
EIF2S3B C236	-0.332	-0.478	0.0412	-0.358
EDC3 C353 (UniProt Q96F86)	-0.0415	0.0966	0.21	0.109

Some of the entries above, reformatted:
Target,log2 mean competition ratio ([1]; 50 µM),log2 mean competition ratio ([1]; 200 µM),log2 mean competition ratio ([2]; 50 µM),log2 mean competition ratio ([2]; 200 µM)
DUT C222,0.00396,-0.112,,
EBF2 C254,-0.0345,-0.0206,,
DYRK1A C312 (UniProt Q13627),-0.00488,0.337,,
DTNBP1 C302 (UniProt Q96EV8),0.118,0.147,0.0908,0.162
EIF2B5 C335,0.115,-0.0747,0.526,-0.00378
EIF5A C73,-0.358,0.264,-0.616,-0.02
EEF2 C567 (UniProt P13639),-0.00022,-0.372,-0.449,-0.418
DST C5610 (UniProt Q03001),-0.0624,-0.0512,-0.506,-0.162
DTL C544 (UniProt Q9NZJ0),0.173,0.22,-0.221,0.0524
DTL C379 (UniProt Q9NZJ0),-0.0986,0.113,-0.166,0.167
DSP C899 (UniProt P15924),0.0302,-0.251,0.351,-0.119
DSTN C46 (UniProt P60981),0.232,0.00465,0.444,0.137
DSTN C39 (UniProt P60981),0.272,0.0594,0.25,-0.123
E2F5 C121,0.0122,0.302,0.0383,0.198
ELAVL1 C13 (UniProt Q15717),-0.207,0.139,-0.594,0.149
DSC2 C797 (UniProt Q02487),-0.0081,0.219,-0.345,0.418
